# The other results are listed elsewhere or left out.
# B1: CM2 (Cordyceps militaris) (protein)
# chain: MEIAEQNVGKSCAIVNLIPPKEGSNIWTAKQVTIARNLPPNRGTGRHQIDWSFGPVKVTGYVDTTNWEIGVTVSIMGIDLGTVYGNLRDGVVLNVDLFLAKGQVRFYLKNGNEVWVHLSVEIRFDGKFEGDYKIITV
# Experiments:
# Test in all cases: glycan array binding signal (z-score within array); higher = stronger binding
# Conditions in all cases: glycan notation: IUPAC condensed, linker removed
# Gal3S(b1-4)Glc = target: Gal3S(b1-4)Glc
# How it was run: (§1)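 The binding signal is a Z-score computed within each array and averaged over linkers. Arrays of the same protein sequence at different concentrations or buffers were also averaged together. Data originate from 3228 arrays in the Consortium for Functional Glycomics database, kept only where the protein sequence was available.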
# Gal3S(b1-4)Glc6S = target: Gal3S(b1-4)Glc6S
# How it was run: as §1
# Gal3S(b1-4)GlcNAc = target: Gal3S(b1-4)GlcNAc
# How it was run: as §1
# [1] = target: Gal3S(b1-4)[Fuc(a1-3)]Glc6S
# How it was run: as §1
# [2] = target: Gal3S(b1-4)[Fuc(a1-3)]GlcNAc
# How it was run: as §1
# [3] = target: Gal3S(b1-4)[Fuc(a1-3)]GlcNAc6S
# How it was run: as §1
# Gal3S4S(b1-4)GlcNAc = target: Gal3S4S(b1-4)GlcNAc
# How it was run: as §1
# Gal3S6S(b1-4)GlcNAc = target: Gal3S6S(b1-4)GlcNAc
# How it was run: as §1
# Gal3S6S(b1-4)GlcNAc6S = target: Gal3S6S(b1-4)GlcNAc6S
# How it was run: as §1
# Gal4S(b1-4)GlcNAc = target: Gal4S(b1-4)GlcNAc
# How it was run: as §1
# Gal4S6S(b1-4)GlcNAc = target: Gal4S6S(b1-4)GlcNAc
# How it was run: as §1
# Gal6P(b1-4)GlcNAc = target: Gal6P(b1-4)GlcNAc
# How it was run: as §1
# Gal6S(b1-3)GlcNAc = target: Gal6S(b1-3)GlcNAc
# How it was run: as §1
# Gal6S(b1-3)GlcNAc6S = target: Gal6S(b1-3)GlcNAc6S
# How it was run: as §1
# Gal6S(b1-4)Glc = target: Gal6S(b1-4)Glc
# How it was run: as §1
# Gal6S(b1-4)Glc6S = target: Gal6S(b1-4)Glc6S
# How it was run: as §1
# Gal6S(b1-4)GlcNAc = target: Gal6S(b1-4)GlcNAc
# How it was run: as §1
# Gal6S(b1-4)GlcNAc6S = target: Gal6S(b1-4)GlcNAc6S
# How it was run: as §1
# GalNAc(a1-3)Gal = target: GalNAc(a1-3)Gal
# How it was run: as §1
# GalNAc(a1-3)GalNAc = target: GalNAc(a1-3)GalNAc
# How it was run: as §1
# [4] = target: GalNAc(a1-3)GalNAc(b1-3)Gal(a1-4)Gal(b1-4)Glc
# How it was run: as §1
# [5] = target: GalNAc(a1-3)GalNAc(b1-3)Gal(a1-4)Gal(b1-4)GlcNAc
# How it was run: as §1
# GalNAc(b1-3)Gal = target: GalNAc(b1-3)Gal
# How it was run: as §1
# [6] = target: GalNAc(b1-3)Gal(a1-4)Gal(b1-4)GlcNAc
# How it was run: as §1
# [7] = target: GalNAc(b1-3)Gal(a1-4)Gal(b1-4)GlcNAc(b1-3)Gal(b1-4)Glc
# How it was run: as §1
# [8] = target: GalNAc(b1-3)Gal(a1-6)Gal(b1-4)Glc
# How it was run: as §1
# GalNAc(b1-3)GalNAc = target: GalNAc(b1-3)GalNAc
# How it was run: as §1
# GalNAc(b1-3)GlcNAc = target: GalNAc(b1-3)GlcNAc
# How it was run: as §1
# GalNAc(b1-4)Gal(b1-4)Glc = target: GalNAc(b1-4)Gal(b1-4)Glc
# How it was run: as §1
# GalNAc(b1-4)GlcNAc = target: GalNAc(b1-4)GlcNAc
# How it was run: as §1
# [9] = target: GalNAc(b1-4)GlcNAc(b1-2)Man
# How it was run: as §1
# [10] = target: GalNAc(b1-4)GlcNAc(b1-2)Man(a1-3)[GalNAc(b1-4)GlcNAc(b1-2)Man(a1-6)]Man(b1-4)GlcNAc(b1-4)GlcNAc
# How it was run: as §1
# [11] = target: GalNAc(b1-4)GlcNAc(b1-3)GalNAc(b1-4)GlcNAc
# How it was run: as §1
# GalNAc(b1-4)GlcNAc6S = target: GalNAc(b1-4)GlcNAc6S
# How it was run: as §1
# GalNAc(b1-6)GalNAc = target: GalNAc(b1-6)GalNAc
# How it was run: as §1
# GalNAc3S(b1-4)GlcNAc = target: GalNAc3S(b1-4)GlcNAc
# How it was run: as §1
# GalNAc3S(b1-4)GlcNAc3S = target: GalNAc3S(b1-4)GlcNAc3S
# How it was run: as §1
# [12] = target: GalNAc3S(b1-4)[Fuc(a1-3)]GlcNAc
# How it was run: as §1
# GalNAc4S6S(b1-4)GlcNAc = target: GalNAc4S6S(b1-4)GlcNAc
# How it was run: as §1
# GalNAc6S(b1-4)GlcNAc = target: GalNAc6S(b1-4)GlcNAc
# How it was run: as §1
# Glc(a1-4)Glc = target: Glc(a1-4)Glc
# How it was run: as §1
# [13] = target: Glc(a1-4)Glc(a1-4)Glc(a1-4)Glc
# How it was run: as §1
# Glc(a1-6)Glc(a1-6)Glc = target: Glc(a1-6)Glc(a1-6)Glc
# How it was run: as §1
# [14] = target: Glc(a1-6)Glc(a1-6)Glc(a1-6)Glc
# How it was run: as §1
# Glc(b1-4)Glc = target: Glc(b1-4)Glc
# How it was run: as §1
binder,measurement,setting,value
B1,glycan array binding signal (z-score),Gal3S(b1-4)Glc,0.687
same,glycan array binding signal (z-score),Gal3S(b1-4)Glc6S,1.54
same,glycan array binding signal (z-score),Gal3S(b1-4)GlcNAc,-0.321
same,glycan array binding signal (z-score),[1],-0.18
same,glycan array binding signal (z-score),[2],1.66
same,glycan array binding signal (z-score),[3],0.364
same,glycan array binding signal (z-score),Gal3S4S(b1-4)GlcNAc,0.112
same,glycan array binding signal (z-score),Gal3S6S(b1-4)GlcNAc,1.4
same,glycan array binding signal (z-score),Gal3S6S(b1-4)GlcNAc6S,3.73
same,glycan array binding signal (z-score),Gal4S(b1-4)GlcNAc,1.5
same,glycan array binding signal (z-score),Gal4S6S(b1-4)GlcNAc,-0.478
same,glycan array binding signal (z-score),Gal6P(b1-4)GlcNAc,-1.5
same,glycan array binding signal (z-score),Gal6S(b1-3)GlcNAc,-0.595
same,glycan array binding signal (z-score),Gal6S(b1-3)GlcNAc6S,0.068
same,glycan array binding signal (z-score),Gal6S(b1-4)Glc,0.018
same,glycan array binding signal (z-score),Gal6S(b1-4)Glc6S,0.244
same,glycan array binding signal (z-score),Gal6S(b1-4)GlcNAc,-0.805
same,glycan array binding signal (z-score),Gal6S(b1-4)GlcNAc6S,-0.036
same,glycan array binding signal (z-score),GalNAc(a1-3)Gal,1.85
same,glycan array binding signal (z-score),GalNAc(a1-3)GalNAc,0.312
same,glycan array binding signal (z-score),[4],0.436
same,glycan array binding signal (z-score),[5],0.418
same,glycan array binding signal (z-score),GalNAc(b1-3)Gal,0.529
same,glycan array binding signal (z-score),[6],-0.165
same,glycan array binding signal (z-score),[7],0.645
same,glycan array binding signal (z-score),[8],0.739
same,glycan array binding signal (z-score),GalNAc(b1-3)GalNAc,0.397
same,glycan array binding signal (z-score),GalNAc(b1-3)GlcNAc,-0.562
same,glycan array binding signal (z-score),GalNAc(b1-4)Gal(b1-4)Glc,-0.617
same,glycan array binding signal (z-score),GalNAc(b1-4)GlcNAc,1.58
same,glycan array binding signal (z-score),[9],-0.347
same,glycan array binding signal (z-score),[10],0.183
same,glycan array binding signal (z-score),[11],0.376
same,glycan array binding signal (z-score),GalNAc(b1-4)GlcNAc6S,0.295
same,glycan array binding signal (z-score),GalNAc(b1-6)GalNAc,-0.35
same,glycan array binding signal (z-score),GalNAc3S(b1-4)GlcNAc,-0.054
same,glycan array binding signal (z-score),GalNAc3S(b1-4)GlcNAc3S,1.13
same,glycan array binding signal (z-score),[12],0.02
same,glycan array binding signal (z-score),GalNAc4S6S(b1-4)GlcNAc,0.386
same,glycan array binding signal (z-score),GalNAc6S(b1-4)GlcNAc,0.882
same,glycan array binding signal (z-score),Glc(a1-4)Glc,0.089
same,glycan array binding signal (z-score),[13],-0.263
same,glycan array binding signal (z-score),Glc(a1-6)Glc(a1-6)Glc,-0.805
same,glycan array binding signal (z-score),[14],1.46
same,glycan array binding signal (z-score),Glc(b1-4)Glc,-1.06

# Looked up one by one from the entries so far:
binder,measurement,setting,value
B1,glycan array binding signal (z-score),Glc(a1-4)Glc,0.089
same,glycan array binding signal (z-score),GalNAc(a1-3)Gal,1.85
